Assay results published in PubChem BioAssay AID488858 (Broad Institute, 2010).
This list was built around the results that the source calls inconclusive (neither active nor inactive); the mix of calls is not that of the screen.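 How the source made its calls: active means compounds raising caspase signal whose fitted AC50 is at most tenfold their top valid tested dose; inconclusive means flat fit at 30 to 70% activation, or poor fit; inactive means the rest.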

Assay: caspase induction in A1-dependent fibroblasts – cell-based, MEF A1-2A-BIM, luminescence, dry powder, set 3, A1 (BCL2A1) inhibitor project, dose response (AID 488858)
Details: MEF A1-2A-BIM cells, caspase-3/7 luminescence; at 150 µM (top of the series)
Outline: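 System: mouse embryonic fibroblasts co-expressing A1-2A-BIM, survival dependent on A1; input: 2500 cells/well; buffer or medium: RPMI, 10% FBS; dosing: pinned compound dose series; schedule: 3 h compound at 37 °C, 1 h reagent at RT; signal: luminescence from DEVD-luciferin caspase-3/7 substrate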

Compound | caspase activation | outcome
COc1cccc(C(=O)C(C#N)=C(SC)SC)c1 | inconclusive: -4.98% | 
CC1(C)CCC(c2ccc(Cl)cc2)=C(CN2CCN(c3ccc(C(=O)NS(=O)(=O)c4ccc(N[C@H](CCN5CCOCC5)CSc5ccccc5)c(S(=O)(=O)C(F)(F)F)c4)cc3)CC2)C1 |  | inconclusive
